In patent US10653717B2, “Antibiotic compositions” (priority 2016, dated 2020):
For at least one compound, name, drawing or mass did not settle the structure. Some compounds share one wording; it may come from a single statement.

Key:
GSH = GSH amount in treated E. coli cell extracts, GR-coupled DTNB reduction; format: cell-based, Escherichia coli; conditions: 5 μM Ag^+ and 80 μM antibiotic; 10 min; compared with antibiotics themselves
wild type E. coli DHB4 = assay: MIC of nine antibiotics and silver in combinations on E. coli DHB4; format: cell-based, Escherichia coli; conditions: serial dilutions of Ag^+ and antibiotic; 24 h
Description: E. coli DHB4 overnight cultures were diluted 1:1000 times in Luria Bertani (LB) medium, and treated with serial dilutions of ionic silver (Ag^+) as a nitrate salt and 9 antibiotics in combinations, separately, for 24 h.
E. coli DHB4 from frozen stock were grown overnight at 37° C., 400 rpm. The overnight culture was diluted 1:100 with 5 ml of LB medium in 15 ml tubes and incubated at 37° C. at 400 rpm. Cells were grown until an OD600 nm of 0.4 and were used for antibiotic treatment. Briefly, cells were diluted 1:1,000 into 100 μl of LB medium in 96 micro-well plates. […] The minimum inhibition concentration (MIC) was determined as the lowest concentration of drugs that inhibited 90% of growth compared to the untreated cells after 24 h culture at 37° C. The cultures treated with the same serial dilutions of 100 μl ebselen and silver nitrate were used as the positive control.

NC[C@H]1O[C@H](O[C@H]2[C@H](O)[C@@H](O[C@H]3O[C@H](CO)[C@@H](O)[C@H](N)[C@H]3O)[C@H](N)C[C@@H]2N)[C@H](O)[C@@H](O)[C@@H]1O [Kanamycin]
total GSH amount in cell extracts (GSH): slightly deplete | activity with silver on E. coli DHB4 growth (wild type E. coli DHB4): synergistic activity

CN(C)[C@@H]1C(O)=C(C(N)=O)C(=O)[C@@]2(O)C(O)=C3C(=O)c4c(O)cccc4[C@@](C)(O)[C@H]3C[C@@H]12 [Tetracycline]
activity with silver on E. coli DHB4 growth (wild type E. coli DHB4): synergistic activity
